The list shows a part of the results.
Columns and labels:
Assay in all cases: log2 fold change, soluble protein after heating vs DMSO (PISA); higher = thermal stabilisation; K562 lysate, 10 uM; active = over 0.2 and 3.5 SD of the protein, either way, in both replicates (recomputed)
erlotinib = compound: C#Cc1cccc(Nc2ncnc3cc(OCCOC)c(OCCOC)cc23)c1 [erlotinib]
Procedure, shortened: (§1)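 Soluble protein was defined as the supernatant remaining after 21,000xg for 90 min, following pooling of heated aliquots and adjustment to 0.5% NP-40 at 4°C. Before that, crude K562 extract at 1 mg/mL protein in PBS pH 7.4 with 1 mM MgCl2 was treated with 10 μM compound for 30 min and heated for 3 min across 48°C-58°C. Quantification used TMTpro 16plex LC-MS/MS with channel sums equalised, and values are log-two fold changes in thermal stability relative to solvent controls from duplicates.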

By UniProt entry, the sequences of proteins in these tests, tags left out. Where a name states a change or a piece, a line headed by the entry shows the natural chain unless it says otherwise.
UniProt P98171: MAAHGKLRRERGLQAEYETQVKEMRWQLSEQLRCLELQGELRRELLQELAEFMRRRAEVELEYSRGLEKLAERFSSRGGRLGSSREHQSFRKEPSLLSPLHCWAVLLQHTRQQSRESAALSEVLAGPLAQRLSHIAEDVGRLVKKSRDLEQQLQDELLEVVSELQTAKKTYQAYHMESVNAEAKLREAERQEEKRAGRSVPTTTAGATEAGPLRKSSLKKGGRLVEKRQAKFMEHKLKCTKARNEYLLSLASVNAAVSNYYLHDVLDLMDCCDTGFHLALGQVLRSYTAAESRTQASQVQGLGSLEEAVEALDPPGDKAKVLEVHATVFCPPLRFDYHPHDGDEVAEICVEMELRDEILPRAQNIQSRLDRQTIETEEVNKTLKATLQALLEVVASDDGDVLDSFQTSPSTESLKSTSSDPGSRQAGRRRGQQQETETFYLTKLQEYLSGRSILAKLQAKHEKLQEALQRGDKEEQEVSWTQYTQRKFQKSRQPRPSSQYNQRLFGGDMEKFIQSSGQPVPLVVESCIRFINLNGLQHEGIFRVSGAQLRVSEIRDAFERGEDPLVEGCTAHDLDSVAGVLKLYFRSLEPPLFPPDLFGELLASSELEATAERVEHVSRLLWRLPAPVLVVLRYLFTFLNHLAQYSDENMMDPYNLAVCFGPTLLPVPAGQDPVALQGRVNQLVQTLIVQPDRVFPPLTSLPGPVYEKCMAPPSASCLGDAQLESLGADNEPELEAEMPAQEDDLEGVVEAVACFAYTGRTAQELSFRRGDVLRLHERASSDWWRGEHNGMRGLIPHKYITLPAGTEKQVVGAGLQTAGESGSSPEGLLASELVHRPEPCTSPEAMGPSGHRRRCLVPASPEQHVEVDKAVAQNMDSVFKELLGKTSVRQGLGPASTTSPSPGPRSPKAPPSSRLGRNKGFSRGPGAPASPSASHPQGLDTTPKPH
UniProt Q9UKG1: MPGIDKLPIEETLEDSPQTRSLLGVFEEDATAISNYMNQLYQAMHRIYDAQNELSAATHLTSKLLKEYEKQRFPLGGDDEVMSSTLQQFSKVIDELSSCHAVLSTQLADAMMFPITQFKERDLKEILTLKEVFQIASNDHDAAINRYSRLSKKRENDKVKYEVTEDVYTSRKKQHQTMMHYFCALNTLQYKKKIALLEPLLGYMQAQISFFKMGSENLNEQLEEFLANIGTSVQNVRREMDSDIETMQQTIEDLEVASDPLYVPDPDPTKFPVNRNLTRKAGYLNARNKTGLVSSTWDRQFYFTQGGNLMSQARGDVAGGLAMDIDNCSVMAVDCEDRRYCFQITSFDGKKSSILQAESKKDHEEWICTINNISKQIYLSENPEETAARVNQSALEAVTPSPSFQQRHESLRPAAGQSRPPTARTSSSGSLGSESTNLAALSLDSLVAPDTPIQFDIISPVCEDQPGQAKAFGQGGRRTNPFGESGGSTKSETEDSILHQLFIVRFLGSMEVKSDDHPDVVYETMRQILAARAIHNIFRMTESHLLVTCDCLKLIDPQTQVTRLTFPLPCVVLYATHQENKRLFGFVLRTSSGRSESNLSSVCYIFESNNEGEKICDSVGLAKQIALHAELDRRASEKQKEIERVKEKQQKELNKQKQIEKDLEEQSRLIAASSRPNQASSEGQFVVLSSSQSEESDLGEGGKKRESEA
UniProt P53365: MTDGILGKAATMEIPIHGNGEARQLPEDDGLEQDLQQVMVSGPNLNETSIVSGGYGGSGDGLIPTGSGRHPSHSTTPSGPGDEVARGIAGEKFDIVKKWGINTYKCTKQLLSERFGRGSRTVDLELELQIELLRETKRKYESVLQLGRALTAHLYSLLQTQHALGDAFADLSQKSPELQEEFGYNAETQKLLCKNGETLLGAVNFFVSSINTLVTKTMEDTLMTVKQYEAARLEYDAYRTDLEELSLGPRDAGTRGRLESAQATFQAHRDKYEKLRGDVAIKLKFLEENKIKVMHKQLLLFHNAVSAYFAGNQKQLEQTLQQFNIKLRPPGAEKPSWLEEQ
UniProt Q9Y587: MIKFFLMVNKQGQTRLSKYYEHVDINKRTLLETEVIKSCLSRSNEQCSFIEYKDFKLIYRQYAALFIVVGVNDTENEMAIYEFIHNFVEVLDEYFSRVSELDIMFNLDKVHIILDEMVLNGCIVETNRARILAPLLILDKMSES
UniProt P02654: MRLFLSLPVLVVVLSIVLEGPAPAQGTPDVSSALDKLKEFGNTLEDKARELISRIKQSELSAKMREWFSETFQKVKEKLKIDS
UniProt Q8IVW6: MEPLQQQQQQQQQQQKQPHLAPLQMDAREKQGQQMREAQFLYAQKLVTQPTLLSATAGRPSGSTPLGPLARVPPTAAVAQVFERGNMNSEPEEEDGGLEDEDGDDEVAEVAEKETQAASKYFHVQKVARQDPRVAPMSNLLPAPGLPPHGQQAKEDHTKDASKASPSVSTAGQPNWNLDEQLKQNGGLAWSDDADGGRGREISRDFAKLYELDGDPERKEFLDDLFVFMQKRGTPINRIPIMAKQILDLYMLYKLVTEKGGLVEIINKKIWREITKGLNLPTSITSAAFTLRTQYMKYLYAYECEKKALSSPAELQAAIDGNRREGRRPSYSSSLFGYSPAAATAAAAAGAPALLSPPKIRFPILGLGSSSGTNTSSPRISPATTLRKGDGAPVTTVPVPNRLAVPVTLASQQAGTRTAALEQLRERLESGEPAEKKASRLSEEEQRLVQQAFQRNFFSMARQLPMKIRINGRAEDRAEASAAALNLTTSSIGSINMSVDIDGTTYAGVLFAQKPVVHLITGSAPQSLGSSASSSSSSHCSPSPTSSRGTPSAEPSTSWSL
UniProt P02649, whole entry, looked up: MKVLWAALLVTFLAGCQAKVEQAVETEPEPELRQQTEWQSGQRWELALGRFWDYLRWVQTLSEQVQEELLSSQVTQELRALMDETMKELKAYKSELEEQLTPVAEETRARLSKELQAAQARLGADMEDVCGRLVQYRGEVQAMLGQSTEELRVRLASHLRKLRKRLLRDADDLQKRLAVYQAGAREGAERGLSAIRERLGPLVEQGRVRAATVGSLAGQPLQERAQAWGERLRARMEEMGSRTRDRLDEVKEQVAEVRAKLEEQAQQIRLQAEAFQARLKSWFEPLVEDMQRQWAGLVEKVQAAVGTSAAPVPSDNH
UniProt Q9NVJ2: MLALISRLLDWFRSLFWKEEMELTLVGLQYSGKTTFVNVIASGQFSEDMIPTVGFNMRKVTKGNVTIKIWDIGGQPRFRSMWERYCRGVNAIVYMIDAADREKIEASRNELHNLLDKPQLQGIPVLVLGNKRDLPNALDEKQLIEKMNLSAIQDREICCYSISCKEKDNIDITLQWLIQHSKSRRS
UniProt O15085: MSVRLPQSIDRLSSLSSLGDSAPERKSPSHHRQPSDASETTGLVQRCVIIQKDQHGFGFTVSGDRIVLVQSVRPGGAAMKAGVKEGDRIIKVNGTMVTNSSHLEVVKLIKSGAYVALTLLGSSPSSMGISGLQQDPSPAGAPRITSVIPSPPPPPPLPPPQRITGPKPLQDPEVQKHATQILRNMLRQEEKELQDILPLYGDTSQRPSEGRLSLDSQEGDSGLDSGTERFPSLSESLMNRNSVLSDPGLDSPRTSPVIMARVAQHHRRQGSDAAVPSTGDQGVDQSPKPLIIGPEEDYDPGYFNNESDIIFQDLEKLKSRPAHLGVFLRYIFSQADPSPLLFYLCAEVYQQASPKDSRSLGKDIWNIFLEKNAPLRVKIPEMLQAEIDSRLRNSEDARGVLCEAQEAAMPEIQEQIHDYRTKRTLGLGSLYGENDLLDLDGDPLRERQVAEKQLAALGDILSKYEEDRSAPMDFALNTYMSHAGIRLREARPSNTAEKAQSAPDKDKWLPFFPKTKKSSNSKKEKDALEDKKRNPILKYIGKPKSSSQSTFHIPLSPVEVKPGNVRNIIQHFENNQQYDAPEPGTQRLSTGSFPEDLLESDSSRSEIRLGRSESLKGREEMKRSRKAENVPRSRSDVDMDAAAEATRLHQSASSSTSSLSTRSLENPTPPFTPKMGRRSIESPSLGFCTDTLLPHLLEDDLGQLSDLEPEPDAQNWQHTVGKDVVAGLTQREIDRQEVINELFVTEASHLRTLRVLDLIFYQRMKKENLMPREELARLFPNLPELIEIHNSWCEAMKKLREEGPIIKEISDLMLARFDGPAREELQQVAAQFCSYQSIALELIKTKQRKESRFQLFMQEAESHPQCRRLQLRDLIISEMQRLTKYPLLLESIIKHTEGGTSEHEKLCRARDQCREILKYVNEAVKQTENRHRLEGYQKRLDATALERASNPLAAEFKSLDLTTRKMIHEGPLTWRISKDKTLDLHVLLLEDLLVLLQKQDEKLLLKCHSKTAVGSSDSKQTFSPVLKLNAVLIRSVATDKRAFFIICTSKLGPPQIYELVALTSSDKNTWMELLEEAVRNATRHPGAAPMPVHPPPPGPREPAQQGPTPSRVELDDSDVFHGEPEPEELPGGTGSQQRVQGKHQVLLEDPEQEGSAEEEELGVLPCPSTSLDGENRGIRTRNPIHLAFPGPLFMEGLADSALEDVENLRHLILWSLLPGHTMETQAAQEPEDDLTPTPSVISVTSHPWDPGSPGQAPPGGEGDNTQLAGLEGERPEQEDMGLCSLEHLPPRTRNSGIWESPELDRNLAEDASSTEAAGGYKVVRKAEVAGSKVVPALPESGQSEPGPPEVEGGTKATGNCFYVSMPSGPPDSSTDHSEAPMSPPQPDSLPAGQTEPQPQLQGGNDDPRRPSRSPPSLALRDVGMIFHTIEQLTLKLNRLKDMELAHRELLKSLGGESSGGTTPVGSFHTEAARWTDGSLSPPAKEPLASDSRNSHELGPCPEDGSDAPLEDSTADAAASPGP
UniProt Q8N6T3: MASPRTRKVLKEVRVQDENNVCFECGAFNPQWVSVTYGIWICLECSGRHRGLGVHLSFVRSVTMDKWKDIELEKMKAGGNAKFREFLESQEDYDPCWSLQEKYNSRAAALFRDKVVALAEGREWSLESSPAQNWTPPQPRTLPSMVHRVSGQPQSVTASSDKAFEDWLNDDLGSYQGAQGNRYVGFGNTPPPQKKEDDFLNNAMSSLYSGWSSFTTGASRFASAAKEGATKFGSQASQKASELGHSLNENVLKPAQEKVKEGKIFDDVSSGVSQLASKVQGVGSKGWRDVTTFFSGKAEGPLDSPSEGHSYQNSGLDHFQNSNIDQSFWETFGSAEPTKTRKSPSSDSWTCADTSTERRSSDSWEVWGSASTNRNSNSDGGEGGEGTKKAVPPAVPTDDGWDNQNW
UniProt Q9HC16: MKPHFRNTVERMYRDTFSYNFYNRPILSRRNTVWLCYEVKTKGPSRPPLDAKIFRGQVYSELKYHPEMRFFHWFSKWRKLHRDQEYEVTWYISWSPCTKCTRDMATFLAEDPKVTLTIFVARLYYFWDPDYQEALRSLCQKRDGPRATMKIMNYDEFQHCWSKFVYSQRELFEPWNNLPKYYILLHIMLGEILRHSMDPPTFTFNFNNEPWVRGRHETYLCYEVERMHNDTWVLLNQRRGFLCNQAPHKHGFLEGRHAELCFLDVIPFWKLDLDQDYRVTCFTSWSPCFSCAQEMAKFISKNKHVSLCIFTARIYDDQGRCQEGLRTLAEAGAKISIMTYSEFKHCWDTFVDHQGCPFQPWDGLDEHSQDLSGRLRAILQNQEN
UniProt Q9Y4X5: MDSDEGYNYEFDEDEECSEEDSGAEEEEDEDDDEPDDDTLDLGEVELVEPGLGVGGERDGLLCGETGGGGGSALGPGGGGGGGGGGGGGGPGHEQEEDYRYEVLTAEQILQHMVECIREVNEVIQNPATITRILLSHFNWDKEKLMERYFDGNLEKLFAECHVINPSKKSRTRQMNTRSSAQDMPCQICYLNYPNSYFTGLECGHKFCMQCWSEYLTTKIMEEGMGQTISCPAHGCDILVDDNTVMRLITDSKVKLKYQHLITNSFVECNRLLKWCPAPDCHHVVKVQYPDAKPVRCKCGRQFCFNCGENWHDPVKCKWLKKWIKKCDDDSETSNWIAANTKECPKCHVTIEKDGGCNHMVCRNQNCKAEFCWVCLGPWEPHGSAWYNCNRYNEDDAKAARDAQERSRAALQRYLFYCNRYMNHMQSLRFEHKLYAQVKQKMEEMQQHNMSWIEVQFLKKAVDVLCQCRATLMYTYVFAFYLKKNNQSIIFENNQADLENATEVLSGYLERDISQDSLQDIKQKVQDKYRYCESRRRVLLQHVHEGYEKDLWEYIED
UniProt Q96GX9: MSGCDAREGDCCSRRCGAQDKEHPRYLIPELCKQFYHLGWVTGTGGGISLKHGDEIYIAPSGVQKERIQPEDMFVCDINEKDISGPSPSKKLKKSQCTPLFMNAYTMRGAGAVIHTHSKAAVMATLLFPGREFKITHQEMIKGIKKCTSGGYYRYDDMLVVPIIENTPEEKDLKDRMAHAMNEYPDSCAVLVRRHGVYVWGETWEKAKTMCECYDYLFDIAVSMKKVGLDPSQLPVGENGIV

[1] = compound: C/C(=N\NC(=O)C1=CC(=CC=C1)S(=O)(=O)N2CCOCC2)/C3=C(C=CC(=C3)Cl)O
Procedure, shortened: as §1

[2] = compound: C1=CC(=CC=C1C2=NC3=C(N2)C=C(C=C3)C(=O)N)OC4=CC=C(C=C4)Cl
Procedure, shortened: as §1

[3] = compound: C1=CC2=C(C=CC(=C2)/C=C\3/C(=O)NC(=NCC4=CC=CS4)S3)N=C1
Procedure, shortened: as §1

[4] = compound: C1=CC2=NC=CN=C2C=C1/C=C/3\C(=O)NC(=O)S3
Procedure, shortened: as §1

[5] = compound: C1=CC=C(C=C1)C2=NC(=C(N2)C3=CC=NC=C3)C4=CC(=C(C=C4)Cl)O
Procedure, shortened: as §1

[6] = compound: C1=CC=C2C(=C1)C3=NNC4=CC=CC(=C43)C2=O
Procedure, shortened: as §1

[7] = compound: C1CCN(C1)C(=O)NC2=CC=CC(=C2)NC3=NC=C(C(=N3)NCCC4=CN=CN4)Br
Procedure, shortened: as §1

[8] = compound: C1CN(CCC1(CC2=CC=C(C=C2)Cl)N)C3=NC=NC4=C3C=CN4
Procedure, shortened: as §1

IRAK-1-4 Inhibitor I = compound: C1COCCN1CCN2C3=CC=CC=C3N=C2NC(=O)C4=CC(=CC=C4)[N+](=O)[O-] [IRAK-1-4 Inhibitor I]
Procedure, shortened: as §1

ibrutinib = compound: C=CC(=O)N1CCC[C@@H](n2nc(-c3ccc(Oc4ccccc4)cc3)c3c(N)ncnc32)C1 [ibrutinib]
Procedure, shortened: as §1

[9] = compound: CC(=O)c1cnc2ccc(-c3cc(Cl)c(O)c(Cl)c3)nc2c1N[C@H]1CC[C@H](CN(C)C)CC1
Procedure, shortened: as §1

ralimetinib = compound: CC(C)(C)Cn1c(N)nc2ccc(-c3[nH]c(C(C)(C)C)nc3-c3ccc(F)cc3)nc21 [ralimetinib]
Procedure, shortened: as §1

[10] = compound: CC(C)(O)CC(=O)NCCn1ccc2ncnc(Nc3ccc(Oc4cccc(C(F)(F)F)c4)c(Cl)c3)c21
Procedure, shortened: as §1

[11] = compound: CC(C)C1=C2N=C(C=C(N2N=C1)NCC3=CC=CC=C3)NCCCCCCN
Procedure, shortened: as §1

[12] = compound: CC1=C(C(CC(=O)N1)C2=CC=C(C=C2)C(F)(F)F)C(=O)NC3=C(C=C4C(=C3)C=NN4)F
Procedure, shortened: as §1

[13] = compound: CC1=C(C2=C(C=C1)C(=O)C3=CC=CC=C3N2CCCN)C
Procedure, shortened: as §1

[14] = compound: CC1=C(C=C(C=C1)NC(=O)C2=CC(=CC=C2)C(C)(C)C#N)NC3=CC4=C(C=C3)N=CN(C4=O)C
Procedure, shortened: as §1

[15] = compound: CC1=C(C=C(C=C1)NC(=O)C2=CC(=CC=C2)N(C)C)NC(=O)C3=CC=C(C=C3)O
Procedure, shortened: as §1

[16] = compound: CC1=CC=C(C=C1)SC2=C3C=C(SC3=CN=C2)C(=O)N
Procedure, shortened: as §1

Measured: log2 fold change

ARHGAP4 isoform 2 (UniProt P98171)
inactive: erlotinib 0.034 | [1] 0.103 | [2] -0.014 | [3] 0.009 | [4] 0.051 | [5] -0.006 | [6] -0.023 | [7] -0.002 | [8] 0 | IRAK-1-4 Inhibitor I 0.012 | ibrutinib 0.027 | [9] 0.016 | ralimetinib 0.006 | [10] -0.005 | [11] 0.014 | [12] 0.031 | [13] 0.003 | [14] 0 | [15] 0.067 | [16] 0.005

APPL1 (UniProt Q9UKG1)
inactive: erlotinib 0.035 | [1] 0.056 | [2] -0.013 | [3] -0.007 | [4] -0.015 | [5] 0.001 | [6] -0.023 | [7] -0.025 | [8] 0.018 | IRAK-1-4 Inhibitor I -0.003 | ibrutinib 0.031 | [9] -0.003 | ralimetinib 0.008 | [10] -0.028 | [11] -0.008 | [12] 0.032 | [13] -0.028 | [14] 0.092 | [15] -0.001 | [16] -0.02

ARFIP2 (UniProt P53365)
inactive: erlotinib 0.011 | [1] -0.023 | [2] 0.063 | [3] 0.035 | [4] 0.027 | [5] 0.004 | [6] 0.01 | [7] -0.028 | [8] 0.03 | IRAK-1-4 Inhibitor I 0.023 | ibrutinib 0 | [9] -0.006 | ralimetinib 0.065 | [10] -0.023 | [11] -0.02 | [12] 0.028 | [13] 0.062 | [14] -0.045 | [15] 0.034 | [16] -0.014

AP4S1 (UniProt Q9Y587)
inactive: erlotinib -0.052 | [1] 0.043 | [2] -0.004 | [3] 0.026 | [4] 0.033 | [5] 0.018 | [6] -0.211 | [7] 0.071 | [8] 0.048 | IRAK-1-4 Inhibitor I -0.027 | ibrutinib 0.09 | [9] 0.037 | ralimetinib -0.046 | [10] -0.041 | [11] 0.008 | [12] -0.019 | [13] 0.131 | [14] -0.055 | [15] -0.017 | [16] 0.012

AQR (UniProt O60306)
inactive: erlotinib 0.024 | [1] -0.023 | [2] -0.029 | [3] 0.03 | [4] 0.078 | [5] 0.003 | [6] -0.026 | [7] -0.009 | [8] -0.015 | IRAK-1-4 Inhibitor I 0 | ibrutinib 0.011 | [9] -0.009 | ralimetinib 0.062 | [10] 0.029 | [11] 0.007 | [12] 0 | [13] -0.003 | [14] -0.027 | [15] 0.042 | [16] -0.006

APOC1 (UniProt P02654)
inactive: erlotinib 0.068 | [1] -0.098 | [2] -0.006 | [3] 0.071 | [4] -0.156 | [5] 0.001 | [6] 0.054 | [7] -0.075 | [8] 0.024 | IRAK-1-4 Inhibitor I 0.001 | ibrutinib 0.015 | [9] -0.143 | ralimetinib 0.012 | [10] -0.022 | [11] 0.131 | [12] 0.148 | [13] -0.018 | [14] 0.016 | [15] -0.03 | [16] -0.017

Taken from the results shown (four entries):
APPL1 (UniProt Q9UKG1)
inactive: erlotinib 0.035 | [1] 0.056 | [2] -0.013 | [3] -0.007 | [4] -0.015 | [5] 0.001 | [6] -0.023 | [7] -0.025 | [8] 0.018 | IRAK-1-4 Inhibitor I -0.003 | ibrutinib 0.031 | [9] -0.003 | ralimetinib 0.008 | [10] -0.028 | [11] -0.008 | [12] 0.032 | [13] -0.028 | [14] 0.092 | [15] -0.001 | [16] -0.02

ARFIP2 (UniProt P53365)
inactive: erlotinib 0.011 | [1] -0.023 | [2] 0.063 | [3] 0.035 | [4] 0.027 | [5] 0.004 | [6] 0.01 | [7] -0.028 | [8] 0.03 | IRAK-1-4 Inhibitor I 0.023 | ibrutinib 0 | [9] -0.006 | ralimetinib 0.065 | [10] -0.023 | [11] -0.02 | [12] 0.028 | [13] 0.062 | [14] -0.045 | [15] 0.034 | [16] -0.014

AP4S1 (UniProt Q9Y587)
inactive: erlotinib -0.052 | [1] 0.043 | [2] -0.004 | [3] 0.026 | [4] 0.033 | [5] 0.018 | [6] -0.211 | [7] 0.071 | [8] 0.048 | IRAK-1-4 Inhibitor I -0.027 | ibrutinib 0.09 | [9] 0.037 | ralimetinib -0.046 | [10] -0.041 | [11] 0.008 | [12] -0.019 | [13] 0.131 | [14] -0.055 | [15] -0.017 | [16] 0.012

AQR (UniProt O60306)
inactive: erlotinib 0.024 | [1] -0.023 | [2] -0.029 | [3] 0.03 | [4] 0.078 | [5] 0.003 | [6] -0.026 | [7] -0.009 | [8] -0.015 | IRAK-1-4 Inhibitor I 0 | ibrutinib 0.011 | [9] -0.009 | ralimetinib 0.062 | [10] 0.029 | [11] 0.007 | [12] 0 | [13] -0.003 | [14] -0.027 | [15] 0.042 | [16] -0.006

(next part)

ARID3B (UniProt Q8IVW6)
inactive: erlotinib 0.01 | [1] -0.004 | [2] 0.029 | [3] 0.004 | [4] 0.004 | [5] 0 | [6] -0.01 | [7] -0.036 | [8] 0.071 | IRAK-1-4 Inhibitor I -0.013 | ibrutinib 0.09 | [9] -0.059 | ralimetinib -0.015 | [10] -0.048 | [11] 0.002 | [12] -0.008 | [13] -0.006 | [14] -0.011 | [15] 0.034 | [16] 0.024

APOE (UniProt P02649)
inactive: erlotinib 0.029 | [1] -0.025 | [2] 0.028 | [3] -0.016 | [4] 0.02 | [5] -0.002 | [6] 0.046 | [7] -0.1 | [8] 0.005 | IRAK-1-4 Inhibitor I 0.042 | ibrutinib 0.003 | [9] 0.014 | ralimetinib -0.025 | [10] -0.014 | [11] -0.017 | [12] 0.02 | [13] -0.048 | [14] -0.013 | [15] 0.022 | [16] 0.008

ARL8B (UniProt Q9NVJ2)
inactive: erlotinib -0.04 | [1] -0.026 | [2] 0.04 | [3] 0.029 | [4] 0.004 | [5] -0.029 | [6] -0.032 | [7] -0.003 | [8] 0.024 | IRAK-1-4 Inhibitor I 0.04 | ibrutinib -0.013 | [9] 0.021 | ralimetinib 0.026 | [10] -0.058 | [11] -0.03 | [12] 0.013 | [13] 0 | [14] 0.011 | [15] -0.013 | [16] -0.02

ARHGAP45 isoform 2 (UniProt Q92619)
inactive: erlotinib 0.052 | [1] -0.027 | [2] 0.004 | [3] 0.03 | [4] 0.094 | [5] 0.056 | [6] -0.009 | [7] 0.038 | [8] 0.075 | IRAK-1-4 Inhibitor I 0.022 | ibrutinib 0.08 | [9] -0.009 | ralimetinib 0.016 | [10] -0.039 | [11] -0.018 | [12] 0.067 | [13] -0.039 | [14] -0.008 | [15] 0.007 | [16] 0.014

ARPC1B (UniProt O15143)
inactive: erlotinib -0.007 | [1] 0.025 | [2] 0.004 | [3] 0.055 | [4] -0.016 | [5] 0.017 | [6] -0.031 | [7] 0.006 | [8] 0.005 | IRAK-1-4 Inhibitor I -0.014 | ibrutinib -0.028 | [9] -0.026 | ralimetinib 0.009 | [10] 0.017 | [11] -0.017 | [12] -0.007 | [13] -0.014 | [14] 0.007 | [15] 0.035 | [16] 0.008

ARHGEF11 isoform 2 (UniProt O15085)
inactive: erlotinib 0.093 | [1] -0.1 | [2] 0.024 | [3] 0.159 | [4] 0.009 | [5] 0.024 | [6] 0.017 | [7] 0.058 | [8] -0.128 | IRAK-1-4 Inhibitor I -0.019 | ibrutinib -0.027 | [9] 0.017 | ralimetinib -0.063 | [10] 0.152 | [11] -0.083 | [12] -0.061 | [13] -0.077 | [14] 0.024 | [15] 0.031 | [16] -0.024

ARFGAP1 (UniProt Q8N6T3)
inactive: erlotinib -0.028 | [1] -0.209 | [2] -0.025 | [3] 0.005 | [4] 0.029 | [5] -0.039 | [6] -0.025 | [7] -0.018 | [8] 0.002 | IRAK-1-4 Inhibitor I 0.038 | ibrutinib -0.118 | [9] 0.06 | ralimetinib -0.018 | [10] -0.203 | [11] 0.019 | [12] 0.408 | [13] 0.136 | [14] -0.062 | [15] 0.061 | [16] -0.045

APOBEC3G (UniProt Q9HC16)
inactive: erlotinib 0.026 | [1] 0.054 | [2] 0.014 | [3] -0.043 | [4] 0.152 | [5] 0.054 | [6] 0.024 | [7] 0.064 | [8] -0.006 | IRAK-1-4 Inhibitor I -0.039 | ibrutinib -0.084 | [9] -0.035 | ralimetinib 0.086 | [10] 0.022 | [11] -0.017 | [12] 0.034 | [13] -0.061 | [14] 0.019 | [15] 0.057 | [16] 0.044

ARIH1 (UniProt Q9Y4X5)
inactive: erlotinib 0.016 | [1] -0.001 | [2] 0 | [3] 0.014 | [4] 0.003 | [5] 0.035 | [6] 0.024 | [7] -0.006 | [8] -0.015 | IRAK-1-4 Inhibitor I 0.002 | ibrutinib 0.005 | [9] 0.015 | ralimetinib -0.002 | [10] -0.039 | [11] -0.017 | [12] 0.002 | [13] 0.035 | [14] 0.035 | [15] -0.019 | [16] 0.016

APIP (UniProt Q96GX9)
inactive: erlotinib -0.024 | [1] -0.077 | [2] -0.014 | [3] 0.004 | [4] 0 | [5] -0.002 | [6] -0.026 | [7] 0.03 | [8] 0.078 | IRAK-1-4 Inhibitor I -0.012 | ibrutinib -0.031 | [9] -0.009 | ralimetinib 0.05 | [10] -0.004 | [11] 0.004 | [12] 0.006 | [13] 0 | [14] 0.005 | [15] -0.048 | [16] -0.04
